Data as given in PubChem BioAssay AID1508597 (Cure First, 2020).

Aim: 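Survival screen with siRNA in ovarian cancer cells derived from patients, with or without rucaparib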 (primary screen)
Cells: human ovarian carcinoma lines grown from tumours: OCI-P5x (papillary serous) and OCI-C5x (clear cell)
Reagent: siRNA pool against human genes, 1.25 pmol siRNA per well
Duration: 72 h or 96 h, depending on the cell culture
Treatment: rucaparib 20 µM (about IC30) or vehicle, present until read-out
Rucaparib or vehicle: Rucaparib
Cell line: OCI-C5x (clear cell)
Measured: 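Luminescent ATP-based viability assay read 72 or 96 h after transfection, depending on culture, given as normalised percent viability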
Direction: viability, normalised: higher = more viable cells remaining
Active means: 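Active when normalised viability falls below 80 percent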
Meaning of the calls: active = viability under 80%; inactive = viability 80% or more
Shown is an unselected part of the about 2,100 reagents, in one setting of the screen. 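Calls flag viability under 80% in either arm, not effects specific to rucaparib; the reference for percent is not stated.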 Some reagents were tested in more than one well and are listed for each. The record does not give: the 100% reference.

no.	target gene	technical replicate	viability, normalised (%)	activity call
1	METTL8 (methyltransferase 8, tRNA N3-cytidine)	1	28.5	active
2	METTL8 (methyltransferase 8, tRNA N3-cytidine)	2	31.1	active
3	METTL8 (methyltransferase 8, tRNA N3-cytidine)	3	36.8	active
4	UTY	1	77.9	active
5	UTY	2	89.7	inactive
6	UTY	3	56.8	active
7	MYLK (myosin light chain kinase)	1	73.5	active
8	MYLK (myosin light chain kinase)	1	41.1	active
9	MYLK (myosin light chain kinase)	2	79.6	active
10	MYLK (myosin light chain kinase)	2	57.9	active
11	MYLK (myosin light chain kinase)	3	78.8	active
12	MYLK (myosin light chain kinase)	3	80.9	inactive
13	DYRK3 (dual specificity tyrosine phosphorylation regulated kinase 3)	1	54.8	active
14	DYRK3 (dual specificity tyrosine phosphorylation regulated kinase 3)	2	64.5	active
15	DYRK3 (dual specificity tyrosine phosphorylation regulated kinase 3)	3	59.2	active
16	MOV10 (Mov10 RNA helicase)	1	42.5	active
17	MOV10 (Mov10 RNA helicase)	2	49.2	active
18	MOV10 (Mov10 RNA helicase)	3	42	active
19	JADE2 (jade family PHD finger 2)	1	25.6	active
20	JADE2 (jade family PHD finger 2)	2	21.7	active
21	JADE2 (jade family PHD finger 2)	3	24	active

Next part (4 carried over from the part before).
no.	target gene	technical replicate	viability, normalised (%)	activity call
18	MOV10 (Mov10 RNA helicase)	3	42	active
19	JADE2 (jade family PHD finger 2)	1	25.6	active
20	JADE2 (jade family PHD finger 2)	2	21.7	active
21	JADE2 (jade family PHD finger 2)	3	24	active
22	OGG1 (8-oxoguanine DNA glycosylase)	1	69.8	active
23	OGG1 (8-oxoguanine DNA glycosylase)	2	58.8	active
24	OGG1 (8-oxoguanine DNA glycosylase)	3	45.7	active
25	EIF2AK2 (eukaryotic translation initiation factor 2 alpha kinase 2)	1	28.1	active
26	EIF2AK2 (eukaryotic translation initiation factor 2 alpha kinase 2)	2	28.7	active
27	EIF2AK2 (eukaryotic translation initiation factor 2 alpha kinase 2)	3	29.4	active
28	FLT1 (fms related receptor tyrosine kinase 1)	1	44.2	active
29	FLT1 (fms related receptor tyrosine kinase 1)	2	41	active
30	FLT1 (fms related receptor tyrosine kinase 1)	3	37.1	active
31	JMJD1C (jumonji domain containing 1C)	1	48.2	active
32	JMJD1C (jumonji domain containing 1C)	2	57.6	active
33	JMJD1C (jumonji domain containing 1C)	3	45.9	active
34	SIRT4 (sirtuin 4)	1	61	active
35	SIRT4 (sirtuin 4)	2	36.2	active
36	SIRT4 (sirtuin 4)	3	37	active
37	LPP	1	57	active
38	LPP	2	61.4	active
39	LPP	3	68.3	active
